Results are given in words; binding and its absence hold for the method and conditions named. Binding calls can cover weak binding; strength is not graded here. Tags and fused reporters may be left off the sequences shown.
How the values were obtained:
[1] = target: T1, MBP-BIM1 (recombinant full-length) (Arabidopsis) (UniProt Q9LEZ3); assay: pull-down
T1 sequence: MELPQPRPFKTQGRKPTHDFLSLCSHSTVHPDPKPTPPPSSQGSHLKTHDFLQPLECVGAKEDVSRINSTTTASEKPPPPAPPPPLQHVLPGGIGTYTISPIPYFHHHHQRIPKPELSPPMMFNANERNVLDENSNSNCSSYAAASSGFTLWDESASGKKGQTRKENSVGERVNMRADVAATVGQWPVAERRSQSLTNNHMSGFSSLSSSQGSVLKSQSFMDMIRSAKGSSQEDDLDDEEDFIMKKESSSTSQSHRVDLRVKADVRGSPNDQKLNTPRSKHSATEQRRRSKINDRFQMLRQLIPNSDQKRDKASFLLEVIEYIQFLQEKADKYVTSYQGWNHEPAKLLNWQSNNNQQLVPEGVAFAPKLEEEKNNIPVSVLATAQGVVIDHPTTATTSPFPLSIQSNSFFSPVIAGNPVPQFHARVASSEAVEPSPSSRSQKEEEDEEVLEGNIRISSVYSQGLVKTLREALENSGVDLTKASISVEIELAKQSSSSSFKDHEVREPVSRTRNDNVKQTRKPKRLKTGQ

[2] = target: HaRxL106 full length (HaRxL106-FL), pDEST32 bait fusion (Hyaloperonospora arabidopsidis); assay: two-hybrid

## HIS-HaRxL106 (recombinant full-length) (Hyaloperonospora arabidopsidis)
[1]
  binding: binds

B1: N-terminal domain of BIM1 (amino acids 1 to 278), pDEST22 prey fusion (domain or fragment, UniProt Q9LEZ3 1-278)
chain: MELPQPRPFKTQGRKPTHDFLSLCSHSTVHPDPKPTPPPSSQGSHLKTHDFLQPLECVGAKEDVSRINSTTTASEKPPPPAPPPPLQHVLPGGIGTYTISPIPYFHHHHQRIPKPELSPPMMFNANERNVLDENSNSNCSSYAAASSGFTLWDESASGKKGQTRKENSVGERVNMRADVAATVGQWPVAERRSQSLTNNHMSGFSSLSSSQGSVLKSQSFMDMIRSAKGSSQEDDLDDEEDFIMKKESSSTSQSHRVDLRVKADVRGSPNDQKLNTPR
[2]
  binding: binds
